Test results published in the supplement of paper PMC4604168 (melanoma cell lines).
Some of the results follow. Single values are uncertain, as repeats are few or missing.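 Cells were imaged in 1,536-well plates, and nuclei stained with an antibody against cleaved PARP were counted against all DNA-stained nuclei to give the apoptosis fraction. Screening doses were chosen to leave most cells alive, and resting and induced cleaved-PARP levels differ strongly between cell lines.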

Experiments:
Experiment in all cases: cleaved PARP positive nuclei fraction relative to DMSO control; melanoma cells; higher = more apoptosis
Settings in all cases: library dose: low library concentration; 72 h
MZ2-MEL = test system: MZ2-MEL
MeWo = test system: MeWo
RPMI7951 = test system: RPMI7951
RVH-421 = test system: RVH-421
SkMel28 = test system: SkMel28
SkMel2 = test system: SkMel2
SkMel30 = test system: SkMel30
SkMel5 = test system: SkMel5
UACC257 = test system: UACC257
UACC62 = test system: UACC62

Row | SMILES | cleaved PARP positive nuclei fraction (MZ2-MEL) [%] | cleaved PARP positive nuclei fraction (MeWo) [%] | cleaved PARP positive nuclei fraction (RPMI7951) [%] | cleaved PARP positive nuclei fraction (RVH-421) [%] | cleaved PARP positive nuclei fraction (SkMel28) [%] | cleaved PARP positive nuclei fraction (SkMel2) [%] | cleaved PARP positive nuclei fraction (SkMel30) [%] | cleaved PARP positive nuclei fraction (SkMel5) [%] | cleaved PARP positive nuclei fraction (UACC257) [%] | cleaved PARP positive nuclei fraction (UACC62) [%]
1 | C[C@@H](N)c1ccc(C(=O)Nc2ccnc3[nH]ccc23)cc1 + CCc1ccc(CCOc2ccc(CC3SC(=O)NC3=O)cc2)nc1 [pioglitazone] (first compound 0.4 µM, partner dose 2 µM) | 115 | 124 | 96.8 | 126 | 220 | 125 | 273 | 87.5 | 76.8 | 130
2 | C[C@@H](N)c1ccc(C(=O)Nc2ccnc3[nH]ccc23)cc1 + CO[C@@H]1[C@H](N(C)C(=O)c2ccccc2)C[C@H]2O[C@]1(C)n1c3ccccc3c3c4c(c5c6ccccc6n2c5c31)C(=O)NC4 [Midostaurin] (first compound 0.4 µM, partner dose 0.08 µM) | 189 | 422 | 166 | 141 | 106 | 224 | 55.7 | 106 | 124 | 161
3 | Cn1sc(=O)n(Cc2ccccc2)c1=O + CCc1ccc(CCOc2ccc(CC3SC(=O)NC3=O)cc2)nc1 [pioglitazone] (first compound 0.4 µM, partner dose 2 µM) | 30.4 | 44.6 | 50.8 | 46.9 | 118 | 125 | 253 | 75.3 | 71.7 | 84
4 | NC(=O)c1ccc(N(C(N)=O)c2c(F)cccc2F)nc1-c1ccc(F)cc1F + Cn1cc(/C=C2\C(=O)Nc3cccnc32)c2ccccc21 [GW441756] (first compound 0.4 µM, partner dose 0.4 µM) | 114 | 62.2 | 96.8 | 104 | 85.5 | 62.2 | 75.7 | 170 | 120 | 126
5 | C[C@@H](N)c1ccc(C(=O)Nc2ccnc3[nH]ccc23)cc1 + N#Cc1c(O)c2c(-c3ccc(-c4ccccc4O)cc3)csc2[nH]c1=O [A769662] (first compound 0.4 µM, partner dose 2 µM) | 169 | 105 | 90 | 220 | 612 | 189 | 60.2 | 104 | 366 | 369
6 | Cn1sc(=O)n(Cc2ccccc2)c1=O + Cc1cc([N+](=O)[O-])ccc1NS(=O)(=O)c1cc(Cl)ccc1Cl [FH535] (first compound 0.4 µM, partner dose 1 µM) | 120 | 114 | 35.6 | 67.9 | 75.4 | 78.3 | 47.1 | 90.4 | 116 | 177
7 | CC1(C)CCC(c2ccc(Cl)cc2)=C(CN2CCN(c3ccc(C(=O)NS(=O)(=O)c4ccc(N[C@H](CCN5CCOCC5)CSc5ccccc5)c(S(=O)(=O)C(F)(F)F)c4)cc3)CC2)C1 + CO[C@@H]1[C@H](N(C)C(=O)c2ccccc2)C[C@H]2O[C@]1(C)n1c3ccccc3c3c4c(c5c6ccccc6n2c5c31)C(=O)NC4 [Midostaurin] (first compound 0.4 µM, partner dose 0.08 µM) | 186 | 593 | 141 | 74.5 | 242 | 278 | 142 | 485 | 173 | 91
8 | NC(=O)c1ccc(N(C(N)=O)c2c(F)cccc2F)nc1-c1ccc(F)cc1F + NC(=O)Nc1cc(-c2cccc(F)c2)sc1C(=O)N[C@H]1CCCNC1 [AZD7762] (first compound 0.4 µM, partner dose 0.02 µM) | 119 | 51.4 | 90.6 | 32 | 25.2 | 59.6 | 64.7 | 134 | 47 | 146
9 | C[C@]1(O)C[C@@H](c2nc(-c3ccc4ccc(-c5ccccc5)nc4c3)c3c(N)nccn32)C1 + COc1cc2c(Oc3ccc4[nH]c(C)cc4c3F)ncnc2cc1OCCCN1CCCC1 [cediranib] (first compound 0.4 µM, partner dose 0.4 µM) | 83.3 | 50.4 | 73.6 | 64.5 | 123 | 133 | 70.9 | 250 | 115 | 173
10 | COc1ccc(C2=N[C@@H](c3ccc(Cl)cc3)[C@@H](c3ccc(Cl)cc3)N2C(=O)N2CCNC(=O)C2)c(OC(C)C)c1 [Nutlin-3] + COc1cc2ncnc(Nc3ccc(Oc4ccccc4)cc3)c2cc1OC [SrcI1] (first compound 0.1 µM, partner dose 2 µM) | 44.8 | 58.2 | 160 | 134 | 243 | 78.9 | 243 | 78.8 | 75.5 | 108
11 | CCN(CC)CCNC(=O)c1c(C)[nH]c(/C=C2\C(=O)Nc3ccc(F)cc32)c1C [sunitinib] + COc1cc2c(Oc3ccc4[nH]c(C)cc4c3F)ncnc2cc1OCCCN1CCCC1 [cediranib] (first compound 0.4 µM, partner dose 0.4 µM) | 20.2 | 71.3 | 160 | 29.6 | 601 | 59 | 79.8 | 128 | 117 | 51.3
12 | COc1ccc(C2=N[C@@H](c3ccc(Cl)cc3)[C@@H](c3ccc(Cl)cc3)N2C(=O)N2CCNC(=O)C2)c(OC(C)C)c1 [Nutlin-3] + O=C(Nc1cccc(Cl)c1)Nc1ncc(CCNc2ncnc3ccsc23)s1 [SNS314] (first compound 0.1 µM, partner dose 0.0008 µM) | 68.5 | 47 | 86.5 | 49.6 | 65.3 | 231 | 205 | 161 | 375 | 79.8
13 | CC(=O)O[C@@]12CO[C@@H]1C[C@H](O)[C@@]1(C)C(=O)[C@H](O)C3=C(C)[C@@H](OC(=O)[C@H](O)[C@@H](NC(=O)OC(C)(C)C)c4ccccc4)C[C@@](O)([C@@H](OC(=O)c4ccccc4)[C@H]21)C3(C)C [Docetaxel] + O=C(Nc1cccc(Cl)c1)Nc1ncc(CCNc2ncnc3ccsc23)s1 [SNS314] (first compound 0.0001 µM, partner dose 0.0008 µM) | 695 | 509 | 113 | 71.4 | 451 | 491 | 196 | 64.6 | 381 | 1000
14 | CS(=O)(=O)c1ccc(C(=O)Nc2ccc(Cl)c(-c3ccccn3)c2)c(Cl)c1 [vismodegib] + O=c1cc(-c2cccc3c2Sc2ccccc2S3)oc(N2CCOCC2)c1 [KU55933] (first compound 1 µM, partner dose 1 µM) | 176 | 187 | 346 | 95.2 | 109 | 23.2 | 23.1 | 216 | 118 | 263
15 | CCN(CC)CCNC(=O)c1c(C)[nH]c(/C=C2\C(=O)Nc3ccc(F)cc32)c1C [sunitinib] + NC(=O)Nc1cc(-c2cccc(F)c2)sc1C(=O)N[C@H]1CCCNC1 [AZD7762] (first compound 0.4 µM, partner dose 0.02 µM) | 83.1 | 251 | 107 | 73.7 | 64.3 | 122 | 150 | 110 | 93.8 | 124
16 | CC1(C)CCC(c2ccc(Cl)cc2)=C(CN2CCN(c3ccc(C(=O)NS(=O)(=O)c4ccc(N[C@H](CCN5CCOCC5)CSc5ccccc5)c(S(=O)(=O)C(F)(F)F)c4)cc3)CC2)C1 + O=C1NC(=O)/C(=C/c2ccc(-c3ccc(F)cc3O)o2)S1 [AS252424] (first compound 0.4 µM, partner dose 1 µM) | 166 | 181 | 254 | 169 | 186 | 121 | 58.7 | 197 | 121 | 99.3
17 | CC1(C)CCC(c2ccc(Cl)cc2)=C(CN2CCN(c3ccc(C(=O)NS(=O)(=O)c4ccc(N[C@H](CCN5CCOCC5)CSc5ccccc5)c(S(=O)(=O)C(F)(F)F)c4)cc3)CC2)C1 + CCc1ccc(CCOc2ccc(CC3SC(=O)NC3=O)cc2)nc1 [pioglitazone] (first compound 0.4 µM, partner dose 2 µM) | 247 | 191 | 111 | 212 | 95.6 | 152 | 110 | 560 | 272 | 95.2
18 | CCCCCCCCc1ccc(CCC(N)(CO)CO)cc1 [fingolimod] + CO[C@@H]1[C@H](N(C)C(=O)c2ccccc2)C[C@H]2O[C@]1(C)n1c3ccccc3c3c4c(c5c6ccccc6n2c5c31)C(=O)NC4 [Midostaurin] (first compound 2 µM, partner dose 0.08 µM) | 153 | 62 | 59.7 | 97.8 | 28.2 | 132 | 144 | 81.1 | 163 | 154
19 | CC1(C)CCC(c2ccc(Cl)cc2)=C(CN2CCN(c3ccc(C(=O)NS(=O)(=O)c4ccc(N[C@H](CCN5CCOCC5)CSc5ccccc5)c(S(=O)(=O)C(F)(F)F)c4)cc3)CC2)C1 + Cc1ccc(NC(=O)c2cccc(N(C)C)c2)cc1NC(=O)c1ccc(O)cc1 [ZM336372] (first compound 0.4 µM, partner dose 2 µM) | 368 | 166 | 281 | 62.6 | 293 | 141 | 100 | 48.5 | 176 | 148

Looked up one by one from the list above:
Row | SMILES | cleaved PARP positive nuclei fraction (MZ2-MEL) [%] | cleaved PARP positive nuclei fraction (MeWo) [%] | cleaved PARP positive nuclei fraction (RPMI7951) [%] | cleaved PARP positive nuclei fraction (RVH-421) [%] | cleaved PARP positive nuclei fraction (SkMel28) [%] | cleaved PARP positive nuclei fraction (SkMel2) [%] | cleaved PARP positive nuclei fraction (SkMel30) [%] | cleaved PARP positive nuclei fraction (SkMel5) [%] | cleaved PARP positive nuclei fraction (UACC257) [%] | cleaved PARP positive nuclei fraction (UACC62) [%]
6 | Cn1sc(=O)n(Cc2ccccc2)c1=O + Cc1cc([N+](=O)[O-])ccc1NS(=O)(=O)c1cc(Cl)ccc1Cl [FH535] (first compound 0.4 µM, partner dose 1 µM) | 120 | 114 | 35.6 | 67.9 | 75.4 | 78.3 | 47.1 | 90.4 | 116 | 177
7 | CC1(C)CCC(c2ccc(Cl)cc2)=C(CN2CCN(c3ccc(C(=O)NS(=O)(=O)c4ccc(N[C@H](CCN5CCOCC5)CSc5ccccc5)c(S(=O)(=O)C(F)(F)F)c4)cc3)CC2)C1 + CO[C@@H]1[C@H](N(C)C(=O)c2ccccc2)C[C@H]2O[C@]1(C)n1c3ccccc3c3c4c(c5c6ccccc6n2c5c31)C(=O)NC4 [Midostaurin] (first compound 0.4 µM, partner dose 0.08 µM) | 186 | 593 | 141 | 74.5 | 242 | 278 | 142 | 485 | 173 | 91
